PubChem BioAssay AID686938, Drosophila RNAi Screening Center | 2013
The deposit covers about 23,000 reagents; shown is a random part of those with a known target gene and a result. Over the whole deposit, 75 (0.33%) were called active. 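Raw plate signals without normalisation; calls rest on plate z-scores that were not deposited; ratio present for only 364 wells.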 Entries without a mark were called inactive. A plus sign joins genes that one reagent is predicted to hit. Not stated in the record: the dose of the treatment.

Assay: 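Knock-downs reducing store-operated calcium influx in Drosophila cells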 (primary screen)
Cell system: Drosophila S2R+ cells
Reagent: long dsRNA against Drosophila genes, about 0.25 µg dsRNA per well, roughly 10,000 cells
Time to read-out: 5 days of knock-down before the calcium assay
Challenge: thapsigargin (SERCA pump blocker) to empty calcium stores; entry signal taken 4 min after adding it
Read-out: 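Duplicate raw fluo-4 intensities per well from a plate reader, at rest and four minutes after thapsigargin emptied calcium stores; entry-to-rest ratio filled for only some wells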
Scale: calcium entry signal: higher = stronger calcium signal after store depletion; entry to resting ratio: higher = more calcium entry relative to resting level; resting calcium signal: higher = higher resting calcium signal
Active means: 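Called when the plate z-score of the entry-to-rest ratio, mean of duplicates, falls below −3; wells with low overall dye signal (Fmax z below −2) or more than five off-targets excluded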
Meaning of the calls: active = strongly reduced calcium entry; inactive = no strong reduction

| target gene | DRSC id | calcium entry signal, replicate 1 (fluorescence units) | calcium entry signal, replicate 2 (fluorescence units) | entry to resting ratio | resting calcium signal, replicate 1 (fluorescence units) | resting calcium signal, replicate 2 (fluorescence units) |
| --- | --- | --- | --- | --- | --- | --- |
| mus302 (mutagen-sensitive 302) | DRSC09905 | 4.15e7 | 7.46e7 | – | 2.02e7 | 2.74e7 |
| grsm (granny smith) | DRSC14165 | 2.29e7 | 4.48e7 | – | 1.17e7 | 7.10e7 |
| grsm (granny smith) | DRSC14843 | 1.80e7 | 3.90e7 | – | 9.60e6 | 5.57e7 |
| mnb (minibrain) | DRSC20058 | 1.96e7 | 1.97e7 | – | 1.25e7 | 1.20e7 |
| mnb (minibrain) | DRSC20353 | 2.60e7 | 3.20e7 | – | 1.40e7 | 1.59e7 |
| mnb (minibrain) | DRSC23347 | 3.02e7 | 2.95e7 | – | 2.03e7 | 1.52e7 |
| stnB + stnA | DRSC20969 | 3.12e7 | 2.44e7 | – | 1.48e7 | 1.25e7 |
| stnB + stnA | DRSC21112 | 5.85e7 | 5.07e7 | – | 2.66e7 | 2.17e7 |
| stnB + stnA | DRSC21113 | 5.65e7 | 4.60e7 | – | 2.65e7 | 1.78e7 |
| eIF2D (eukaryotic translation initiation factor 2D) | DRSC13916 | 3.20e7 | 5.22e7 | – | 1.56e7 | 2.23e7 |
| CG32986 | DRSC02509 | 2.09e7 | 3.48e7 | – | 9.55e6 | 1.52e7 |
| fu (fused) | DRSC20333 | 2.77e7 | 2.26e7 | – | 1.57e7 | 1.12e7 |
| CR32011 + CR32010 + PlexB + 1 more | DRSC21664 | 3.70e7 | 4.24e7 | – | 2.19e7 | 1.99e7 |
| gol (goliath) | DRSC04689 | 3.17e7 | – | – | 1.65e7 | – |
| CG15406 | DRSC00420 | 3.04e7 | 2.68e7 | – | 1.46e7 | 1.30e7 |
| CG33235 | DRSC19641 | 3.41e7 | 5.36e7 | – | 1.66e7 | 2.53e7 |
| spirit (Serine Protease Immune Response Integrator) | DRSC18202 | 2.92e7 | 3.27e7 | – | 1.37e7 | 1.52e7 |
| Sid (Stress induced DNase) | DRSC16588 | 4.35e7 | 5.79e7 | – | 2.24e7 | 2.49e7 |
| CG32148 | DRSC09338 | 4.15e7 | 4.63e7 | – | 2.01e7 | 2.47e7 |
| Rme-8 (Receptor mediated endocytosis 8) | DRSC07054 | 2.69e7 | 2.16e7 | – | 1.12e7 | 1.11e7 |
| CG3635 | DRSC03729 | 3.73e7 | 5.57e7 | – | 1.87e7 | 2.38e7 |
| Exo84 (Exocyst 84) | DRSC15965 | 4.13e7 | 5.02e7 | – | 2.19e7 | 2.08e7 |
| CG17739 | DRSC06689 | 4.06e7 | 3.68e7 | – | 1.69e7 | 1.74e7 |
| dap (dacapo) | DRSC07601 | 3.32e7 | 2.89e7 | – | 1.34e7 | 1.43e7 |
| 4E-T (eIF4E-Transporter) | DRSC17201 | 5.53e7 | 5.27e7 | – | 2.32e7 | 2.46e7 |
| 4E-T (eIF4E-Transporter) | DRSC17208 | 3.40e7 | 5.68e7 | 1.9 | 1.80e7 | 2.40e7 |
| CG10853 | DRSC08164 | 3.83e7 | 5.47e7 | – | 1.88e7 | 2.32e7 |
| CG13868 | DRSC06427 | 4.13e7 | 3.30e7 | – | 1.96e7 | 1.69e7 |
| CG10631 | DRSC02081 | 4.41e7 | – | – | 2.13e7 | – |
| xmas-1 (retired record) | DRSC20386 | 4.86e7 | 2.97e7 | – | 2.40e7 | 1.44e7 |
| Dhps (Deoxyhypusine synthase) | DRSC10948 | 3.14e7 | 3.16e7 | – | 1.52e7 | 1.44e7 |
| CG30458 | DRSC06660 | 5.01e7 | 2.99e7 | – | 2.15e7 | 1.57e7 |
| ord (orientation disruptor) | DRSC04706 | 1.97e7 | 2.21e7 | – | 1.11e7 | 1.14e7 |
| Ugt37A1 (UDP-glycosyltransferase family 37 member A1) | DRSC02114 | 6.98e7 | 4.86e7 | – | 3.33e7 | 2.04e7 |
| CG5770 | DRSC06954 | 3.52e7 | 3.76e7 | – | 1.68e7 | 1.79e7 |
| CG7386 | DRSC10832 | 3.49e7 | 5.23e7 | – | 1.59e7 | 2.37e7 |
| CG2772 | DRSC00530 | 3.01e7 | 3.42e7 | – | 1.53e7 | 1.57e7 |
| CG30062 | DRSC21737 | 3.08e7 | 3.64e7 | – | 1.64e7 | 1.70e7 |
| swm (second mitotic wave missing) | DRSC02012 | 3.38e7 | 3.52e7 | – | 1.65e7 | 1.34e7 |
| swm (second mitotic wave missing) | DRSC21831 | 2.41e7 (active) | 3.52e7 | – | 1.44e7 | 2.29e7 |
| ldbr (lariat debranching enzyme) | DRSC10933 | 5.94e7 | 4.64e7 | – | 3.67e7 | 1.87e7 |
| CG12531 | DRSC19466 | 3.89e7 | 3.27e7 | – | 1.79e7 | 1.37e7 |
| CG34304 (retired record) | DRSC12810 | 3.32e7 | 6.57e7 | – | 1.64e7 | 3.08e7 |
| bgm (bubblegum) | DRSC03495 | 2.41e7 | – | – | 1.57e7 | – |
| Scgdelta (Sarcoglycan delta) | DRSC18544 | 4.63e7 | 4.72e7 | 2 | 2.29e7 | 2.15e7 |
| RpL35 (Ribosomal protein L35) | DRSC18347 | 1.28e7 | 1.39e7 | – | 9.19e6 | 9.46e6 |
| CG10283 | DRSC02034 | 3.76e7 | – | – | 1.76e7 | – |
| CG9667 | DRSC16535 | 3.19e7 | 4.61e7 | – | 2.06e7 | 3.14e7 |
| Gr59a (Gustatory receptor 59a) | DRSC21550 | 3.33e7 | 3.63e7 | – | 1.90e7 | 1.58e7 |
| yrt (yurt) | DRSC16559 | 3.21e7 | 4.79e7 | – | 1.52e7 | 2.09e7 |
| Pbp45 (PSEA-binding protein 45kD) | DRSC16509 | 2.73e7 | 3.79e7 | – | 1.40e7 | 5.66e7 |
| CG6454 | DRSC16044 | 3.91e7 | 2.71e7 | – | 1.85e7 | 1.39e7 |
| CG13004 | DRSC19523 | 3.56e7 | 3.07e7 | – | 1.87e7 | 1.58e7 |
| Mdr49 (Multi drug resistance 49) | DRSC07466 | 3.99e7 | 3.64e7 | – | 1.85e7 | 1.83e7 |
| CG4459 | DRSC15582 | 3.79e7 | 3.84e7 | – | 5.00e7 | 1.66e7 |
| CG4757 | DRSC14130 | 2.29e7 | 2.15e7 | – | 1.20e7 | 1.21e7 |
| LanB1 | DRSC03360 | 4.51e7 | – | – | 2.42e7 | – |
| lig (lingerer) | DRSC07246 | 4.85e7 | 3.07e7 | – | 2.11e7 | 1.40e7 |
| lig (lingerer) | DRSC07247 | 3.01e7 | 3.86e7 | – | 1.52e7 | 1.84e7 |

Taken from above.
For “calcium entry signal, replicate 1 (fluorescence units)”, CG4459 [DRSC15582] shows 3.79e7
For “resting calcium signal, replicate 2 (fluorescence units)”, CG10853 [DRSC08164] reads 2.32e7
CG12531 [DRSC19466], calcium entry signal, replicate 2 (fluorescence units) → 3.27e7
For “resting calcium signal, replicate 2 (fluorescence units)”, Pbp45 (PSEA-binding protein 45kD) [DRSC16509] shows 5.66e7
For “calcium entry signal, replicate 1 (fluorescence units)”, 4E-T (eIF4E-Transporter) [DRSC17201] is entered as 5.53e7
LanB1 [DRSC03360], calcium entry signal, replicate 1 (fluorescence units): 4.51e7
